From patent US20190062417A1 (SHANGHAI JW INFLINHIX, published 2019)
No constants are given. Whether binding was seen depends on the method and setting. Some results given as binding are weak or reduced against the parent protein; the word gives no strength.

Chains of the proteins cited; added tags and fusions are not shown. Lines headed by an entry give the natural chain unless they say otherwise; changes in a name come on top. Residues count along the entry.
UniProt P01375, residues 77-233: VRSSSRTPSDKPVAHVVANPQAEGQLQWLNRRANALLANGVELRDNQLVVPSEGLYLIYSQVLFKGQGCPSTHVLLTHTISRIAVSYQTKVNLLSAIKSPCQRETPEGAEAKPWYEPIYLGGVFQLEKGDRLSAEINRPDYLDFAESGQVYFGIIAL

Legend:
[1] = molecular target: Tumor necrosis factor alpha (TNF) (UniProt P01375); experiment: ELISA, TNF coated
[2] = molecular target: Tumor necrosis factor alpha (TNF) (UniProt P01375); experiment: immunofluorescence microscopy on L929 cells
[3] = molecular target: Tumor necrosis factor alpha (TNF) (UniProt P01375); experiment: confocal microscopy on L929 cells
[4] = molecular target: TNFa mutant S86F/Y87H (mutant TNF, TNF-mu) (human) (UniProt P01375); experiment: binding assay of FIG. 6A

binding [4]: binds
B1: monoclonal antibody 244-12 (antibody, mouse IgG2b, kappa, V domains shown)
VH: QIQLVQSGPELKKPGETVKISCKASGYTFTNYGMNWVKQAPGKGLKWMGWINTYTGEPTYADDFKGRFAFSLETSANTAYLQINNLRNEGMATYFCARHYRYAWFPYWGQGTLVTVSA
VL: DIQMTQSPASLSASVGETVTITCRASGNIHIYLAWYQQKQGKSPQLLVYNAKTLADGVPSRFSGSGSGTQYSLKINSLQPEDFGSYYCQHFWSIPWTFGGGTKLEIKR
notes: also called antibody of the present invention
binding [1]: binds
binding [2]: binds
binding [3]: binds
